Patent US20140349923A1, “Compositions And Methods For Treating Diabetes And/Or Obesity” (GlaxoSmithKline Intellectual Property (No. 2) Limited, priority 2012, published 2014)
At least one compound was matched to its structure with a doubt left.

Experiment: Chronic (20-day) obesity efficacy study with liraglutide in DIO mice
Format: in vivo, DIO C57BL/6 mice

CCCCCCCCCCCCCCCC(=O)N[C@@H](CCC(=O)NCCCC[C@H](NC(=O)[C@H](C)NC(=O)[C@H](C)NC(=O)[C@H](CCC(N)=O)NC(=O)CNC(=O)[C@H](CCC(=O)O)NC(=O)[C@H](CC(C)C)NC(=O)[C@H](Cc1ccc(O)cc1)NC(=O)[C@H](CO)NC(=O)[C@H](CO)NC(=O)[C@@H](NC(=O)[C@H](CC(=O)O)NC(=O)[C@H](CO)NC(=O)[C@@H](NC(=O)[C@H](Cc1ccccc1)NC(=O)[C@@H](NC(=O)CNC(=O)[C@H](CCC(=O)O)NC(=O)[C@H](C)NC(=O)[C@@H](N)Cc1cnc[nH]1)[C@@H](C)O)[C@@H](C)O)C(C)C)C(=O)N[C@@H](CCC(=O)O)C(=O)N[C@@H](Cc1ccccc1)C(=O)N[C@H](C(=O)N[C@@H](C)C(=O)N[C@@H](Cc1c[nH]c2ccccc12)C(=O)N[C@@H](CC(C)C)C(=O)N[C@H](C(=O)N[C@@H](CCCNC(=N)N)C(=O)NCC(=O)N[C@@H](CCCNC(=N)N)C(=O)NCC(=O)O)C(C)C)[C@@H](C)CC)C(=O)O [liraglutide]
final weight loss (DIO mice, 20 days total): −5.4% | ED20 dose for weight loss (subcutaneous): 0.02 mg/kg
